Results from the M2OR odorant receptor database.
The entries are a selection whose mix differs from that of the whole data set. Calls are pooled over several reports, among them a noisy single-well screen. The list shows a part of the results.

Chains of the proteins cited; added tags and fusions are not shown. Where a name states a change or a piece, a line headed by the entry shows the natural chain unless it says otherwise. A line that says so, or that is headed by a name, gives the form on record, which may keep a tag or linker.
UniProt Q8NH37: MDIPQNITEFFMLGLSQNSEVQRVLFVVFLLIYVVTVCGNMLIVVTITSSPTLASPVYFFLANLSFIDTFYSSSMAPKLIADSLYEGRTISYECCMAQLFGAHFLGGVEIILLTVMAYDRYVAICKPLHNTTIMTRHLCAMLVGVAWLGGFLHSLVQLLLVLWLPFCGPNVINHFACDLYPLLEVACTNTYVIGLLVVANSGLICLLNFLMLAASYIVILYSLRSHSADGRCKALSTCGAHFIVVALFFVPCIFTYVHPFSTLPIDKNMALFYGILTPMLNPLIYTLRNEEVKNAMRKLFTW
UniProt Q8NH72: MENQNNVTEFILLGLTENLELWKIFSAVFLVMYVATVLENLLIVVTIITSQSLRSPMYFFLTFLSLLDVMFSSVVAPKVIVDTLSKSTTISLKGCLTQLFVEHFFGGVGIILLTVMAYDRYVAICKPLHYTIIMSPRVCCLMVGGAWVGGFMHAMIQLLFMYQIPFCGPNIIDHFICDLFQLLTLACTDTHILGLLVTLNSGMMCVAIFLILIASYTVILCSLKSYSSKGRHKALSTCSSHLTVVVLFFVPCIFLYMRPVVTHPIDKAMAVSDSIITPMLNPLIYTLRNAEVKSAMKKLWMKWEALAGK
OR4C3, as listed by the source: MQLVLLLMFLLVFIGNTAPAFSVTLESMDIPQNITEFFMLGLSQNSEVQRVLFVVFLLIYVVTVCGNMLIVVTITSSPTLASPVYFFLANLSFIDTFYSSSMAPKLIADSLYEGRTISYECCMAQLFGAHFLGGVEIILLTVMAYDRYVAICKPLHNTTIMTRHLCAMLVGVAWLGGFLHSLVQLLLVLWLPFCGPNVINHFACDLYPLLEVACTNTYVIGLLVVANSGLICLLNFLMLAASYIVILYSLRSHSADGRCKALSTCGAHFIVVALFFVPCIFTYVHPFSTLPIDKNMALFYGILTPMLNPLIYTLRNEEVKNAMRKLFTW
OR4CC, as listed by the source: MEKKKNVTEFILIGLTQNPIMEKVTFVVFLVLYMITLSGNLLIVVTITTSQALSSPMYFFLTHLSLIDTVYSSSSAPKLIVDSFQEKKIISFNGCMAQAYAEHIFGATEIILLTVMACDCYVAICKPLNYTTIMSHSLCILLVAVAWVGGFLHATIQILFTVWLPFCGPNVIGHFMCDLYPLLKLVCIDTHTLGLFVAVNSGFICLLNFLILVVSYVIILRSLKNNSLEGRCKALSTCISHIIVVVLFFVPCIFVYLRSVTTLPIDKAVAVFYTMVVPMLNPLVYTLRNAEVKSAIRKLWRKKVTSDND
OR4C5, as listed by the source: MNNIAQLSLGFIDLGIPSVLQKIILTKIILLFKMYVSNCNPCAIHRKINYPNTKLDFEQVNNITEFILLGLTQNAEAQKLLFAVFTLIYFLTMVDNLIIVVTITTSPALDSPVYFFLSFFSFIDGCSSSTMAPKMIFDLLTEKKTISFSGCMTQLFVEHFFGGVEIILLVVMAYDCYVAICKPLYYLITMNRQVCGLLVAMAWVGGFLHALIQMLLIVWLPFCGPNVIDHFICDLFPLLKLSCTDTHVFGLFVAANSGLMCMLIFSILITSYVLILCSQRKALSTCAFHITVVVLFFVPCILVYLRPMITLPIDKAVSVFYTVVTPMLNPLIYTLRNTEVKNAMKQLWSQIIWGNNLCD

Columns and labels:
Conditions in all cases: stereoisomer not certain
OR3A3 = system: T1, OR3A3
T1 sequence (whole entry): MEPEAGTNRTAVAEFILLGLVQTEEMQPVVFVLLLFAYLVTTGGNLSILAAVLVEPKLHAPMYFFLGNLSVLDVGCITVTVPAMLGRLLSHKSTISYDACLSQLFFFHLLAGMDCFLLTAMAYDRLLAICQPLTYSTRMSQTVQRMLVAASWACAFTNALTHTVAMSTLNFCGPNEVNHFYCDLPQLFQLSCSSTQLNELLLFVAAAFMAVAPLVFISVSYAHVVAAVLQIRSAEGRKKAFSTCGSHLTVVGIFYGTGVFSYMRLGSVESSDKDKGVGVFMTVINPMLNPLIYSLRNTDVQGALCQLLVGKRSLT
Outline: (§1)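 Values were gathered from published papers (main text and supplementary material), with extra details requested from the original authors when needed, and checked for typos and inconsistencies. Each receptor–molecule pair is called responsive (active) if the original authors judged the measured signal statistically different from baseline, and non-responsive (inactive) otherwise. Assay methods varied by source, often transient mammalian cell-line luciferase assays. Recorded details include cell line, G-protein, co-transfected protein and tags.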

OR3A4 = system: T2, OR3A4
T2 sequence (whole entry): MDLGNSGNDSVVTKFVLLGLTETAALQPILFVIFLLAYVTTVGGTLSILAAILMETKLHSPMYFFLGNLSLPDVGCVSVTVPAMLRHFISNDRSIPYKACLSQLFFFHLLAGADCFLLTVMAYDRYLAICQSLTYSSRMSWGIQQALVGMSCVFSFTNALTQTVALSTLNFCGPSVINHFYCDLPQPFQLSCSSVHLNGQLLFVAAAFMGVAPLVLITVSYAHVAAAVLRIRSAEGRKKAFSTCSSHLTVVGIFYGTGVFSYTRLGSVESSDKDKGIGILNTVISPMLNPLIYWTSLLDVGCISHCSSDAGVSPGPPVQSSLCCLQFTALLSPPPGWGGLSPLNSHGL
Outline: as §1

OR4A16 (Homo sapiens) = molecular target: T3, OR4A16 (Homo sapiens) (UniProt Q8NH70)
T3 sequence (whole entry): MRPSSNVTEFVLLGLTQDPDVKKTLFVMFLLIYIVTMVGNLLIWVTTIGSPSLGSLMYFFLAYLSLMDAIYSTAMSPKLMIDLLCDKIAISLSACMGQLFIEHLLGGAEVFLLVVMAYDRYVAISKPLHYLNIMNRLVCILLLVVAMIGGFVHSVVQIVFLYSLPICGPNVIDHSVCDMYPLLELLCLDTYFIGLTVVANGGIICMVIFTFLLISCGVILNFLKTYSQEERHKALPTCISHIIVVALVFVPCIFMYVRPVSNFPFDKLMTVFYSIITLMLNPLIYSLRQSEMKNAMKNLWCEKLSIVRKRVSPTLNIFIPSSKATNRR
Outline: as §1

OR4A4P (Homo sapiens) = molecular target: T4, OR4A4P (Homo sapiens) (UniProt Q8NGN8)
T4 sequence (whole entry): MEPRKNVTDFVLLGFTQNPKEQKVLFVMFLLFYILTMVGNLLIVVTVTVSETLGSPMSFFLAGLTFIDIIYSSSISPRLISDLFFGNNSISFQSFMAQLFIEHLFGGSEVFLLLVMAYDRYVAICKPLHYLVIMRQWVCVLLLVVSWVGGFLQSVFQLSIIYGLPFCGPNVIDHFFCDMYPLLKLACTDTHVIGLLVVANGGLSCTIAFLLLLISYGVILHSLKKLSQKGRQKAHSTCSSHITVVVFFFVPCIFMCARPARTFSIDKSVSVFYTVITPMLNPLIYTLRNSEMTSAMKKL
Outline: as §1

OR4A5 (Homo sapiens) = molecular target: T5, OR4A5 (Homo sapiens) (UniProt Q8NH83)
T5 sequence (whole entry): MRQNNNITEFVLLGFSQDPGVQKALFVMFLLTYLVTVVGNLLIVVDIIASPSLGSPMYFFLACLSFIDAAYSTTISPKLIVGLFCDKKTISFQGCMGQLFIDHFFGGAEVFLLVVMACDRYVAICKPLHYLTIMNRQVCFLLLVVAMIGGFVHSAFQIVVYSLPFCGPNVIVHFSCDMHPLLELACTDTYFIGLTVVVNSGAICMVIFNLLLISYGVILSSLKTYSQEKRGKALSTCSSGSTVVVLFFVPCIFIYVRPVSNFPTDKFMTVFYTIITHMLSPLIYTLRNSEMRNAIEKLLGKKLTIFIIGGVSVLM
Outline: as §1

OR4A5 = system: T6, OR4A5
T6 sequence (whole entry): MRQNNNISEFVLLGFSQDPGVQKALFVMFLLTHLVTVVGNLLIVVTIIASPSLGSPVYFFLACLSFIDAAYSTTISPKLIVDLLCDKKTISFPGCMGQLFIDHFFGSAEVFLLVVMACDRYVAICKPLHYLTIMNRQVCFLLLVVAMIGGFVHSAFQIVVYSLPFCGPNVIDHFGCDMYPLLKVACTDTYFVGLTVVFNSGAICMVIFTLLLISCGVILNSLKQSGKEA
Outline: as §1

OR4B1 (Homo sapiens) = molecular target: T7, OR4B1 (Homo sapiens) (UniProt Q8NGF8)
T7 sequence (whole entry): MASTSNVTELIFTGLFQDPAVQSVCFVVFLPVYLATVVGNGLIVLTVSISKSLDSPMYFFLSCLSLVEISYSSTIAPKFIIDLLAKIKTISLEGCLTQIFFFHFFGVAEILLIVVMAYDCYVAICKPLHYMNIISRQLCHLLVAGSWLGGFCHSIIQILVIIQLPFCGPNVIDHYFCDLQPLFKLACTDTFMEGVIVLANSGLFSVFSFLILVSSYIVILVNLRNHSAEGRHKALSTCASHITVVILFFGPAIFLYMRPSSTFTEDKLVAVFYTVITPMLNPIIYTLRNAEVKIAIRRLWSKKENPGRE
Outline: as §1

OR4C11 (Homo sapiens) = molecular target: T8, OR4C11 (Homo sapiens) (UniProt Q6IEV9)
T8 sequence (whole entry): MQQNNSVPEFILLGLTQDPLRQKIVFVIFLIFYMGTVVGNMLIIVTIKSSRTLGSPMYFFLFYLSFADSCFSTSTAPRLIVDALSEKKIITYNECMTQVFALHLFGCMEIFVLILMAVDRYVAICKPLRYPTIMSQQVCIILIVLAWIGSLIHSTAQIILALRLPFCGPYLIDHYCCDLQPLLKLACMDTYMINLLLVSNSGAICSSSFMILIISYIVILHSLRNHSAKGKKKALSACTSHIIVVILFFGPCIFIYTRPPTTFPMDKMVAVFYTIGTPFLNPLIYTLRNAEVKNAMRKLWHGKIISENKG
Outline: as §1

OR4C3 (Homo sapiens) = OR4C3 (Homo sapiens) (UniProt Q8NH37)
Outline: as §1

OR4C3 = system: OR4C3
Outline: as §1

OR4C5 = system: OR4C5
Outline: as §1

OR4C6 (Homo sapiens) = OR4C6 (Homo sapiens) (UniProt Q8NH72)
Outline: as §1

OR4CC = system: OR4CC
Outline: as §1

Structure (SMILES) | odorant receptor agonist call (OR3A3) | odorant receptor agonist call (OR3A4) | odorant receptor agonist call (OR4A16 (Homo sapiens)) | odorant receptor agonist call (OR4A4P (Homo sapiens)) | odorant receptor agonist call (OR4A5 (Homo sapiens)) | odorant receptor agonist call (OR4A5) | odorant receptor agonist call (OR4B1 (Homo sapiens)) | odorant receptor agonist call (OR4C11 (Homo sapiens)) | odorant receptor agonist call (OR4C3 (Homo sapiens)) | odorant receptor agonist call (OR4C3) | odorant receptor agonist call (OR4C5) | odorant receptor agonist call (OR4C6 (Homo sapiens)) | odorant receptor agonist call (OR4CC)
C=CCc1ccc(OC(C)=O)c(OC)c1 | active | active | inactive | inactive | active | inactive | inactive | inactive | inactive | inactive | inactive | inactive | active
CCCCO | inactive | inactive | inactive | inactive | inactive | inactive | inactive | inactive | inactive | inactive | inactive | inactive | inactive
CC(C)C=O | inactive | inactive | inactive | inactive | inactive | inactive | inactive | inactive | inactive | inactive | inactive | inactive | inactive
CCCCCOC(C)=O | inactive | inactive | inactive | inactive | active | inactive | inactive | inactive | inactive | inactive | inactive | – | inactive
O=C1CCCCCCCCCCCCCCO1 | inactive | inactive | inactive | inactive | inactive | inactive | inactive | inactive | inactive | inactive | inactive | inactive | inactive
O=C1CCCCC1 | – | – | inactive | inactive | – | inactive | inactive | inactive | inactive | inactive | inactive | – | inactive
CC(=O)c1ccccc1 | – | – | inactive | inactive | – | active | inactive | inactive | inactive | inactive | inactive | – | inactive
COc1cc(C)ccc1O | inactive | inactive | inactive | inactive | inactive | inactive | inactive | inactive | inactive | inactive | inactive | inactive | inactive
CC(=O)OCC=C(C)CCC=C(C)C | inactive | inactive | inactive | inactive | active | inactive | inactive | inactive | inactive | inactive | inactive | inactive | active
CCCCCCCOC(C)=O | inactive | inactive | inactive | inactive | inactive | inactive | inactive | inactive | inactive | inactive | inactive | inactive | inactive
CC(C)CC(=O)O | inactive | inactive | inactive | inactive | inactive | inactive | inactive | inactive | inactive | inactive | inactive | inactive | active
CCCC(=O)O | inactive | active | inactive | inactive | inactive | inactive | inactive | inactive | inactive | inactive | inactive | inactive | inactive
CC1=CCC(C(C)(C)O)CC1 (stereo not given) | inactive | inactive | inactive | inactive | inactive | inactive | inactive | inactive | inactive | inactive | inactive | inactive | inactive
CCCCCCCCCC=O | inactive | inactive | inactive | inactive | active | inactive | inactive | inactive | inactive | inactive | inactive | inactive | inactive
CCC=CCCO | inactive | inactive | inactive | inactive | inactive | inactive | inactive | inactive | inactive | inactive | inactive | inactive | inactive
CCCCCC(C)=O | – | – | inactive | inactive | – | inactive | inactive | active | inactive | active | inactive | – | inactive
O=CCc1ccccc1 | inactive | inactive | inactive | inactive | active | inactive | inactive | inactive | inactive | inactive | inactive | inactive | inactive
CCCCCCCCOC(C)=O | inactive | inactive | inactive | inactive | inactive | inactive | inactive | inactive | inactive | inactive | inactive | inactive | inactive
c1ccc(Oc2ccccc2)cc1 | inactive | inactive | inactive | inactive | inactive | inactive | inactive | inactive | inactive | inactive | inactive | inactive | inactive
CC(C)CCC(=O)O | inactive | inactive | inactive | inactive | inactive | inactive | inactive | inactive | inactive | inactive | inactive | inactive | inactive
CC(C)(O)CCCC1=CCC(C=O)CC1 (stereo not given) | inactive | inactive | – | – | active | – | – | – | – | – | – | – | –
CC1COCc2cc3c(cc21)C(C)(C)C(C)C3(C)C (stereo not given) | active | inactive | active | active | active | inactive | inactive | active | active | active | active | active | active
CC(=O)OC1CC2CCC1(C)C2(C)C (stereo not given) | inactive | inactive | inactive | inactive | inactive | inactive | inactive | inactive | inactive | inactive | inactive | inactive | inactive
CCCCCCCCCCC=O | inactive | inactive | inactive | inactive | inactive | inactive | inactive | inactive | inactive | inactive | inactive | inactive | inactive
C=C(C)C1CCC2=CC(=O)CC(C)C2(C)C1 (stereo not given) | active | active | – | – | active | – | – | – | – | – | – | – | –
CC1=NC(C)SC1C (stereo not given) | – | – | inactive | inactive | – | inactive | inactive | inactive | inactive | inactive | inactive | – | inactive
COC(=O)c1ccccc1 | – | – | inactive | inactive | – | active | inactive | inactive | inactive | inactive | inactive | – | inactive

Single records, from the list above. Values in the order: odorant receptor agonist call (OR3A3) | odorant receptor agonist call (OR3A4) | odorant receptor agonist call (OR4A16 (Homo sapiens)) | odorant receptor agonist call (OR4A4P (Homo sapiens)) | odorant receptor agonist call (OR4A5 (Homo sapiens)) | odorant receptor agonist call (OR4A5) | odorant receptor agonist call (OR4B1 (Homo sapiens)) | odorant receptor agonist call (OR4C11 (Homo sapiens)) | odorant receptor agonist call (OR4C3 (Homo sapiens)) | odorant receptor agonist call (OR4C3) | odorant receptor agonist call (OR4C5) | odorant receptor agonist call (OR4C6 (Homo sapiens)) | odorant receptor agonist call (OR4CC)
O=C1CCCCCCCCCCCCCCO1 in the list: inactive | inactive | inactive | inactive | inactive | inactive | inactive | inactive | inactive | inactive | inactive | inactive | inactive
CCC=CCCO in the list: inactive | inactive | inactive | inactive | inactive | inactive | inactive | inactive | inactive | inactive | inactive | inactive | inactive
